This is an account of results in PMC7311514.

Sequences of proteins named here, by UniProt entry; tags and fusion partners are left off. Residues count along the entry.
UniProt P35968, residues 20-1356: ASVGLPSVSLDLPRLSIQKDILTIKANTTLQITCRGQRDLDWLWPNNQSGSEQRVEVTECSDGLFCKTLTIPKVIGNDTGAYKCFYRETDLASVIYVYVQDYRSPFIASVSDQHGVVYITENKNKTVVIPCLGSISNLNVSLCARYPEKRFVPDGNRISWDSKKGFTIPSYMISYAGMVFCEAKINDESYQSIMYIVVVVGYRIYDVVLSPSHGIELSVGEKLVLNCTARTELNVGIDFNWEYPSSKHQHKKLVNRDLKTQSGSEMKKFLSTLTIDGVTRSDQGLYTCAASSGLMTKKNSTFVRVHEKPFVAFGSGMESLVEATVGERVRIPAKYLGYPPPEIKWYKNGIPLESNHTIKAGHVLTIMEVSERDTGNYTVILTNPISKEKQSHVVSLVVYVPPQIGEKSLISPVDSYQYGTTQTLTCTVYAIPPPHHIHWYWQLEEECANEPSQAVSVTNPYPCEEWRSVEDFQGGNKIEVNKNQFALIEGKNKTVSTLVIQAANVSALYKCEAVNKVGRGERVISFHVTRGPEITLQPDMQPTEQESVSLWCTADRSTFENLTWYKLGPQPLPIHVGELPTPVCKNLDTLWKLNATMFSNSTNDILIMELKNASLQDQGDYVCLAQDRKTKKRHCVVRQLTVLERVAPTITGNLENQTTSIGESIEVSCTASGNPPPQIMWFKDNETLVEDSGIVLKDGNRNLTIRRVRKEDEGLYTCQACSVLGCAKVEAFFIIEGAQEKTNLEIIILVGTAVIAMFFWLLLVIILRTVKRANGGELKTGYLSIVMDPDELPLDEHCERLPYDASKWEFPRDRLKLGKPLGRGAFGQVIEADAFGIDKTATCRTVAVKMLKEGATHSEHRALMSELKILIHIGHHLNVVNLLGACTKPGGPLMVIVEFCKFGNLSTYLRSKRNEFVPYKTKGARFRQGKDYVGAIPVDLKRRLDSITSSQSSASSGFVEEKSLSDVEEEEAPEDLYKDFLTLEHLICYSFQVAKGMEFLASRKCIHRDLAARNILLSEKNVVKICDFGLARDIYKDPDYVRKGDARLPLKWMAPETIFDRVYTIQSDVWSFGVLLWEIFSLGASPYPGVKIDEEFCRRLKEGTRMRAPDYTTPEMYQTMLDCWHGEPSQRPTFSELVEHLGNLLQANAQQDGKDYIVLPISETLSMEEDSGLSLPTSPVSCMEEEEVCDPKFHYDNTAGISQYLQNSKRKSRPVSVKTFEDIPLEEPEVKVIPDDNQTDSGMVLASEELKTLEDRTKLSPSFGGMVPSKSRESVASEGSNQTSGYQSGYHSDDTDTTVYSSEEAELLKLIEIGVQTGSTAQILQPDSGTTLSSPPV
UniProt O14786, residues 22-923: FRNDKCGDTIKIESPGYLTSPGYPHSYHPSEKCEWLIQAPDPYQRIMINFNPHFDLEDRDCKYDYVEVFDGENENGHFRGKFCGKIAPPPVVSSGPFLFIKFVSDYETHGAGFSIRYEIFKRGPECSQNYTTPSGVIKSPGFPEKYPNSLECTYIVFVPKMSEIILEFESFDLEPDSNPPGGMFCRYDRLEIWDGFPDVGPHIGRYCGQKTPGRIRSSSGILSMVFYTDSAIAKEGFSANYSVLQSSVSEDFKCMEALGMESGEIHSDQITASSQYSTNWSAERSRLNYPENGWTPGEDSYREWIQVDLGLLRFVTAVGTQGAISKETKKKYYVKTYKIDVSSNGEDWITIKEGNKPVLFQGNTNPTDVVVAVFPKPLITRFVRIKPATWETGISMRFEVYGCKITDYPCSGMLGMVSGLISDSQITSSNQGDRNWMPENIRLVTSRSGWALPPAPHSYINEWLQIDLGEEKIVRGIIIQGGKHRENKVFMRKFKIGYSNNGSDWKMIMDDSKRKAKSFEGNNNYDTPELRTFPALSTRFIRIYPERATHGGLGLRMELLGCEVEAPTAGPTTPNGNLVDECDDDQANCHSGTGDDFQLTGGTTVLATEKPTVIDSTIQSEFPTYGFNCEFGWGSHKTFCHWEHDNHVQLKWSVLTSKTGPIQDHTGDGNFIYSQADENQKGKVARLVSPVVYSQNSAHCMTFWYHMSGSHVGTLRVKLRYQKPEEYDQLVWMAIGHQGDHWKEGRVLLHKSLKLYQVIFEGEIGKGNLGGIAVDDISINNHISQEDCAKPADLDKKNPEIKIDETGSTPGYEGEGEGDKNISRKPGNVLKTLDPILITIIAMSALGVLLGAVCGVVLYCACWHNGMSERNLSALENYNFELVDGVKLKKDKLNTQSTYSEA

Results are given in words; binding and its absence hold for the method and conditions named. In cells and extracts the contact can be indirect. Some entries that bind do so weakly or less than the wild type.

The target of test [1] is T1, raftlin (endogenous, HUVEC) (human (endogenous in HUVEC)) (UniProt Q14699).
T1 sequence: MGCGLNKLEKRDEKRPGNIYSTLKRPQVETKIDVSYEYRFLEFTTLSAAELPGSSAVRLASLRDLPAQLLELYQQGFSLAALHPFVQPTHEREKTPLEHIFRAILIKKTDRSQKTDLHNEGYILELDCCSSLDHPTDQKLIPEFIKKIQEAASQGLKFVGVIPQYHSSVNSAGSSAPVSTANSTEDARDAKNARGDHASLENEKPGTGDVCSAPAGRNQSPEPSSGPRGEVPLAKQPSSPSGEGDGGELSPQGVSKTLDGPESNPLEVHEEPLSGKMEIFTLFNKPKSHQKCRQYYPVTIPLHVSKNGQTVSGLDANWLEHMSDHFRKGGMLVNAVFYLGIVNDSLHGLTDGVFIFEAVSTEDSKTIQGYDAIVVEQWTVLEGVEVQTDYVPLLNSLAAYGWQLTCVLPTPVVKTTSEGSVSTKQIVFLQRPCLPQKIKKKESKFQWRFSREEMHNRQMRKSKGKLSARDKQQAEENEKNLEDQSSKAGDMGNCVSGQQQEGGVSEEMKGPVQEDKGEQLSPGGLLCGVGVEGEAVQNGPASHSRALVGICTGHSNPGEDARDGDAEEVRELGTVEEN
The test can be described thus: co-IP; HUVEC serum-starved 1 h, stimulated with 40 ng/ml VEGF (VEGF165) for the indicated times, with or without 5 μM SU5416 pre-incubation for 1 h; lysis in 20 mM Tris pH7.5, 137 mM NaCl, 0.5% NP-40, 1 mM EDTA; immunoprecipitation of endogenous raftlin, Nrp1 or VEGFR2 with Protein G beads at 4 °C; western blot. A general note: In western blotting, separated proteins are transferred to a membrane and probed.

Test [2] deals with VEGFR2 (endogenous, HUVEC; mature receptor) (human (endogenous in HUVEC)) (UniProt P35968). The description is as above.

With “immature VEGFR2 (lower molecular weight receptor, endogenous, HUVEC) (from UniProt P35968 20-1356)”, the binding result in test [1] is “no binding”.

Regarding “neuropilin-1 (endogenous, HUVEC) (from UniProt O14786 22-923) (receptor)”, the binding result in test [1] is “binds”.

B1: raftlin-2 (endogenous, HUVEC) (protein, UniProt Q52LD8 1-501)
chain: MGCGLRKLEDPDDSSPGKIFSTLKRPQVETKTEFAYEYVLLDFTLQASSNPEVIKINSILDIVTKVENYYLKGYIVGAIHPVIQPVGQRKHLPASYLYRVVLLRLKLSPKNSAAPSGQRRPRLVIEECPLTSEAQTNDAAKELIEKINVAAKRGMKFVGFISQHYSPSKFCNGTNHDGDIESMLHVRHGSDENCRSWNEGTLSGQSSESGIEEELHHESGQYQMEQNGSPTSSKSRKGEASDNKLYTVFNAFDDDSTSWAYQEGILSMKVTRKGSVISTLDADWLELTTFYYKQGLSLIDSFVFWETSKGEHLPKSLEGFFIYEEEGSGVPGSSRKGNDAIVVEQWTVIEGCEIKTDYGPLLHTLAEFGWLLTSVLPTPVLRHDSEGNLATKQIVFLQRPVMWNSAAQTPDKKASRHIKGEDKNKATSRSIGLDTTSSQPAESRHLPEECRLSPSRECWTKEGRLAQHNSFSGFSSSDNVLRELDDGQFDQEDGVTQVTCM
On to B1, for which the binding result in test [2] is on record as “no binding”.
